The results in this text go back to the supplement of paper PMC4604168 (melanoma cell lines).

Among the test systems are MZ2-MEL; MeWo; RPMI7951; RVH-421; SkMel28; SkMel2; SkMel30; UACC62; WM115; WM1716; WM1745; WM3526; WM3619; WM451Lu.
Holding throughout (test): cleaved PARP positive nuclei fraction relative to DMSO control; melanoma cells; higher = more apoptosis
Holding throughout (conditions): library dose: low library concentration; 72 h

The structures appear in SMILES notation. Some of the results follow. Single values are uncertain, as repeats are few or missing.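 Imaging used 1,536-well plates; nuclei positive for cleaved PARP by antibody were divided by total DNA-stained nuclei to yield the apoptosis fraction. Doses for screening kept most cells viable, and cell lines differ markedly in resting and induced cleaved-PARP levels.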

`CC(C)C[C@H](NC(=O)[C@H](Cc1ccccc1)NC(=O)c1cnccn1)B(O)O` [Bortezomib] + CCCS(=O)(=O)Nc1ccc(F)c(C(=O)c2c[nH]c3ncc(Cl)cc23)c1F [PLX4720] (first compound 0.001 µM, partner dose 0.08 µM): the “cleaved PARP positive nuclei fraction” value in the experiment on MZ2-MEL stood at 326%; in the experiment on MeWo it was 366%; in the experiment on RPMI7951, 215%; in the experiment with RVH-421 it was 297%; in the experiment on SkMel28 it was 82.9%; with SkMel2, 135%. The “cleaved PARP positive nuclei fraction” value with SkMel30 stood at 99.9%; with UACC62, 349%; with WM115, 114%; with WM1716 it was 882%; with WM1745 it was 163%; with WM3526, 63.4%. The “cleaved PARP positive nuclei fraction” value in the experiment with WM3619 came out at 630%; with WM451Lu, 50.5%.
As for `C[C@@H](Oc1cc(-c2cnn(C3CCNCC3)c2)cnc1N)c1c(Cl)ccc(F)c1Cl` [Crizotinib] + Nc1cccc2c1CN(C1CCC(=O)NC1=O)C2=O [lenalidomide] (first compound 0.2 µM, partner dose 1 µM), the “cleaved PARP positive nuclei fraction” value in the experiment on MZ2-MEL is 116%; in the experiment with MeWo it was 136%; with RPMI7951, 92.4%; with RVH-421, 101%; in the experiment with SkMel28, 175%; in the experiment with SkMel2, 73%. The “cleaved PARP positive nuclei fraction” value with SkMel30 amounted to 30.4%; in the experiment on UACC62, 82.9%; in the experiment on WM115, 68.9%; in the experiment with WM1716, 108%; in the experiment on WM1745, 89.5%; in the experiment with WM3526 it was 51.4%. Moreover, the “cleaved PARP positive nuclei fraction” value in the experiment on WM3619 was determined as 87.8%; in the experiment with WM451Lu it was 134%.
Regarding `C=C(c1ccc(C(=O)O)cc1)c1cc2c(cc1C)C(C)(C)CCC2(C)C` [Bexarotene] + COc1ccc(Cl)c(Nc2nc3ccccc3nc2NS(=O)(=O)c2cccc(NC(=O)C(C)(C)N)c2)c1 [XL147] (first compound 2 µM, partner dose 0.8 µM), the “cleaved PARP positive nuclei fraction” value was determined as 73.5% in the experiment with MZ2-MEL; 132% in the experiment on MeWo; 55.8% in the experiment on RPMI7951; 81.1% in the experiment on RVH-421; 116% in the experiment with SkMel28; 139% in the experiment on SkMel2. Moreover, the “cleaved PARP positive nuclei fraction” value was determined as 199% in the experiment with SkMel30; 58.1% in the experiment with UACC62; 102% in the experiment with WM115; 218% in the experiment with WM1716; 1780% in the experiment on WM1745; 59.7% in the experiment on WM3526. Besides, the “cleaved PARP positive nuclei fraction” value came to 106% with WM3619 and 121% with WM451Lu.
Consider `C=C(c1ccc(C(=O)O)cc1)c1cc2c(cc1C)C(C)(C)CCC2(C)C` [Bexarotene] + Cn1nnc2c(C(N)=O)ncn2c1=O [temozolomide] (first compound 2 µM, partner dose 2 µM), for which the “cleaved PARP positive nuclei fraction” value in the experiment on MZ2-MEL came out at 63.8%; in the experiment on MeWo, 77.7%; in the experiment with RPMI7951, 111%; in the experiment on RVH-421 it was 134%; in the experiment with SkMel28, 313%; in the experiment with SkMel2, 121%. Moreover, the “cleaved PARP positive nuclei fraction” value with SkMel30 was 53.6%; in the experiment on UACC62, 163%; in the experiment on WM115, 76.6%; with WM1716 it was 533%; with WM1745 it was 105%; in the experiment on WM3526, 51.4%. The “cleaved PARP positive nuclei fraction” value with WM3619 was 141%; in the experiment with WM451Lu it was 114%.
Consider `Cn1c(=O)n(-c2ccc(C(C)(C)C#N)cc2)c2c3cc(-c4cnc5ccccc5c4)ccc3ncc21` + C[C@@H](Oc1cc(-c2cnn(C3CCNCC3)c2)cnc1N)c1c(Cl)ccc(F)c1Cl [Crizotinib] (first compound 0.004 µM, partner dose 0.2 µM), for which the “cleaved PARP positive nuclei fraction” value with MZ2-MEL is 71.5%; in the experiment on MeWo it was 114%; in the experiment with RPMI7951, 44%; with RVH-421, 30.3%; in the experiment on SkMel28 it was 87.6%; in the experiment with SkMel2 it was 113%. Moreover, the “cleaved PARP positive nuclei fraction” value in the experiment on SkMel30 was determined as 58.8%; in the experiment on UACC62, 30.6%; in the experiment on WM115, 124%; in the experiment with WM1716, 18.8%; in the experiment with WM1745 it was 102%; in the experiment with WM3526 it was 123%. In addition, the “cleaved PARP positive nuclei fraction” value stood at 113% in the experiment on WM3619 and 91.6% with WM451Lu.
`CS(=O)(=O)CCNCc1ccc(-c2ccc3ncnc(Nc4ccc(OCc5cccc(F)c5)c(Cl)c4)c3c2)o1` [lapatinib] + CC(=O)c1c(C)c2cnc(Nc3ccc(N4CCNCC4)cn3)nc2n(C2CCCC2)c1=O [palbociclib] (first compound 0.8 µM, partner dose 0.04 µM): the “cleaved PARP positive nuclei fraction” value in the experiment with MZ2-MEL worked out at 44.1%; with MeWo, 61.8%; with RPMI7951 it was 124%; with RVH-421 it was 88.6%; in the experiment on SkMel28, 216%; in the experiment with SkMel2, 108%. Besides, the “cleaved PARP positive nuclei fraction” value in the experiment on SkMel30 came out at 134%; in the experiment with UACC62, 73.1%; with WM115 it was 76.8%; in the experiment on WM1716 it was 91.8%; in the experiment with WM1745, 124%; with WM3526 it was 73.4%. Also, the “cleaved PARP positive nuclei fraction” value came to 271% in the experiment on WM3619 and 50.9% with WM451Lu.
Consider `CN1CCN(c2ccc3nc(-c4c(N)c5c(F)cccc5[nH]c4=O)[nH]c3c2)CC1` [Dovitinib] + Nc1cccc2c1CN(C1CCC(=O)NC1=O)C2=O [lenalidomide] (first compound 0.1 µM, partner dose 1 µM), for which the “cleaved PARP positive nuclei fraction” value stood at 42.8% in the experiment with MZ2-MEL; 110% in the experiment on MeWo; 89.9% in the experiment on RPMI7951; 83.1% in the experiment on RVH-421; 49.3% in the experiment on SkMel28; 66.5% with SkMel2. Moreover, the “cleaved PARP positive nuclei fraction” value came to 212% with SkMel30; 72.1% in the experiment with UACC62; 133% with WM115; 136% with WM1716; 123% in the experiment on WM1745; 89.2% in the experiment on WM3526. Also, the “cleaved PARP positive nuclei fraction” value stood at 91.8% in the experiment on WM3619 and 51.9% in the experiment with WM451Lu.
Turning to `Nc1nc(F)nc2c1ncn2[C@@H]1O[C@H](CO)[C@@H](O)[C@@H]1O` [fludarabine] + COCC[n+]1c2c(n(Cc3cnccn3)c1C)C(=O)c1ccccc1C2=O [YM155] (first compound 0.2 µM, partner dose 0.0004 µM), the “cleaved PARP positive nuclei fraction” value is 66.2% in the experiment with MZ2-MEL; 627% in the experiment with MeWo; 243% in the experiment with RPMI7951; 59.9% with RVH-421; 107% with SkMel28; 1530% with SkMel2. In addition, the “cleaved PARP positive nuclei fraction” value is 1810% with SkMel30; 81.4% in the experiment with UACC62; 267% in the experiment with WM115; 126% in the experiment with WM1716; 246% in the experiment on WM1745; 4990% in the experiment on WM3526. Moreover, the results for the “cleaved PARP positive nuclei fraction” value in the experiment with WM3619 and with WM451Lu were 110% and 223%, respectively.
As to `CC(C)C[C@H](NC(=O)[C@H](Cc1ccccc1)NC(=O)c1cnccn1)B(O)O` [Bortezomib] + Cc1nc(Nc2ncc(C(=O)Nc3c(C)cccc3Cl)s2)cc(N2CCN(CCO)CC2)n1 [dasatanib] (first compound 0.001 µM, partner dose 0.004 µM), the “cleaved PARP positive nuclei fraction” value was found to be 403% with MZ2-MEL; 61.5% in the experiment on MeWo; 50.1% in the experiment on RPMI7951; 72.7% with RVH-421; 100% in the experiment with SkMel28; 115% with SkMel2. The “cleaved PARP positive nuclei fraction” value amounted to 134% with SkMel30; 96.4% in the experiment with UACC62; 87.6% in the experiment on WM115; 587% in the experiment with WM1716; 464% with WM1745; 28.5% in the experiment with WM3526. Further, the “cleaved PARP positive nuclei fraction” value in the experiment on WM3619 is 597%; in the experiment on WM451Lu, 362%.
Regarding `CN1CCN(c2ccc3nc(-c4c(N)c5c(F)cccc5[nH]c4=O)[nH]c3c2)CC1` [Dovitinib] + CS(=O)(=O)CCNCc1ccc(-c2ccc3ncnc(Nc4ccc(OCc5cccc(F)c5)c(Cl)c4)c3c2)o1 [lapatinib] (first compound 0.1 µM, partner dose 0.8 µM), the “cleaved PARP positive nuclei fraction” value with MZ2-MEL was determined as 74.9%; in the experiment on MeWo it was 126%; with RPMI7951, 96.3%; in the experiment on RVH-421 it was 211%; with SkMel28, 104%; with SkMel2, 58.5%. Further, the “cleaved PARP positive nuclei fraction” value in the experiment on SkMel30 was 103%; in the experiment with UACC62, 168%; in the experiment with WM115, 121%; with WM1716 it was 93.6%; in the experiment with WM1745 it was 108%; in the experiment with WM3526, 39.6%. Besides, the “cleaved PARP positive nuclei fraction” value in the experiment on WM3619 stood at 94.3%; in the experiment with WM451Lu it was 87.2%.
